Among the data in publication PMC6294507 are binding values, retold here.

Chains of the proteins cited; added tags and fusions are not shown. Lines headed by an entry give the natural chain unless they say otherwise; changes in a name come on top. Residues count along the entry.
UniProt Q9BRJ7: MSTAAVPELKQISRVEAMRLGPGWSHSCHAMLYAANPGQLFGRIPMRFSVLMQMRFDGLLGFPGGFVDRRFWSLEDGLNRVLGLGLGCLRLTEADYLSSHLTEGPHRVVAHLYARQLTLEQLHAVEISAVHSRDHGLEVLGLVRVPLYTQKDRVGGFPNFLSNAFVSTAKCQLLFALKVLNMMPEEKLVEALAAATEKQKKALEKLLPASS
SDOS-eGFP: residues 6-211 of Q9BRJ7
UniProt P08238: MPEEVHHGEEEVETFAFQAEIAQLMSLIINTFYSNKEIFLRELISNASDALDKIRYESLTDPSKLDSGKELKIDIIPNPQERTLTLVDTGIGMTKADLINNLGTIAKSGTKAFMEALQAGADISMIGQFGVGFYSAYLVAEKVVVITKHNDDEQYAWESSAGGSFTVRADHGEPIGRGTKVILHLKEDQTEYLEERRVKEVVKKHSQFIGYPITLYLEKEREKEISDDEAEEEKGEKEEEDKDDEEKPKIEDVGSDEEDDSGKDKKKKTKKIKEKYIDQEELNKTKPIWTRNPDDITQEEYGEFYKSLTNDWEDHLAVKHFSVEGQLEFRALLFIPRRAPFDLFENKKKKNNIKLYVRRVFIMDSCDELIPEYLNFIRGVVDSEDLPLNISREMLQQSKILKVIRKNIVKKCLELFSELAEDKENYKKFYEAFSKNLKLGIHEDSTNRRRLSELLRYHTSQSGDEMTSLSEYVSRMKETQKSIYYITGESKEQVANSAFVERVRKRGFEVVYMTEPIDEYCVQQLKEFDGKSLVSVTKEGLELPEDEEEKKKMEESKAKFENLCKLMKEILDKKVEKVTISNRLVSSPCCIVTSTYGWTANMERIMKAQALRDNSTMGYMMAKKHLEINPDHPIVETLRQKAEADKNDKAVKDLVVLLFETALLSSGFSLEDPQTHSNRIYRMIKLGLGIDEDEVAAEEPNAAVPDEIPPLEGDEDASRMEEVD
UniProt P16401: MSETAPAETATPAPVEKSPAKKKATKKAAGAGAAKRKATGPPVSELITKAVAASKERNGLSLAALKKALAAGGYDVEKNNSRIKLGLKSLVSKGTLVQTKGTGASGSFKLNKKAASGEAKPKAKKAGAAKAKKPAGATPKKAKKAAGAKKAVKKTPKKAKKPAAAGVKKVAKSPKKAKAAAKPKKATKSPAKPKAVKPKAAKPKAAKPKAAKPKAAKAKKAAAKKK

Common to all, as to test: affinity purification with mass spectrometry; eGFP-fusion proteins captured from HeLa Flp In TRex lysates on GFP-Trap agarose beads, 2 h, 4 C; lysis buffer 150 mM NaCl, 10 mM Tris-HCl pH 7.5, 1% Triton X-100, 5 mM MgCl2, 5 mM DTT; RNase A during the second wash; label-free quantitative proteomics against unfused eGFP
For assay [1], the target named is T1, TRAP1-eGFP (human) (UniProt Q12931).
T1 sequence: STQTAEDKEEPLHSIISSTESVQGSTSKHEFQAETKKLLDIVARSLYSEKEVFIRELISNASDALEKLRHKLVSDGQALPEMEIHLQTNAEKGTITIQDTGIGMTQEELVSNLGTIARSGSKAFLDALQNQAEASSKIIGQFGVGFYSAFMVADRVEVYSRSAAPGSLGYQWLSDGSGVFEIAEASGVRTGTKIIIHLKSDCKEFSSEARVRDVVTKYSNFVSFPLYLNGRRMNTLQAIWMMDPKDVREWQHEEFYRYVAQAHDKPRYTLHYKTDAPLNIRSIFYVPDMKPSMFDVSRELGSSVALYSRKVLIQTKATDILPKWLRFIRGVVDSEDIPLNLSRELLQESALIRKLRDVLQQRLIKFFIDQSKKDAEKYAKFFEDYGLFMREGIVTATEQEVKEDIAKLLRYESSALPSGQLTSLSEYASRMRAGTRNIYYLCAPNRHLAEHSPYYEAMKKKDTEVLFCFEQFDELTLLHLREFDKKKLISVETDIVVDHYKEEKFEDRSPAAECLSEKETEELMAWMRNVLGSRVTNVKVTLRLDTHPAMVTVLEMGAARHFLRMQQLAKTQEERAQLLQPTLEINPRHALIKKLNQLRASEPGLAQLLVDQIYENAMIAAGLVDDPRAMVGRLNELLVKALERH

Assay [2] addresses T1, TRAP1-eGFP (human). The source holds these as a separate data set.
A further assay has as its target SDOS-eGFP (human) (UniProt Q9BRJ7).

Read-outs that look alike come from different tables or passages of the source. Results are given in words; binding and its absence hold for the method and conditions named. In cells and extracts the contact can be indirect. These calls come from enrichment with a bait or labelling near it, and not all partners need be listed. For part of these data: Sequences can lack the tags named with a protein.

Turning to “Heat shock protein HSP 90-beta (from UniProt P08238 1-724)”, the binding result in the assay with TRAP1-eGFP (human) [1] was “binds”.
Still for that read-out and setting: then “Histone H1.5 (from UniProt P16401 1-226)”, with “binds”.
Same read-out and setting: then “Protein syndesmos (endogenous SDOS) (from UniProt Q9BRJ7 1-211)”, with “binds”.

B1: ATP-binding cassette sub-family F member 2 (protein, UniProt Q9UG63 1-623)
chain: MPSDLAKKKAAKKKEAAKARQRPRKGHEENGDVVTEPQVAEKNEANGRETTEVDLLTKELEDFEMKKAAARAVTGVLASHPNSTDVHIINLSLTFHGQELLSDTKLELNSGRRYGLIGLNGIGKSMLLSAIGKREVPIPEHIDIYHLTREMPPSDKTPLHCVMEVDTERAMLEKEAERLAHEDAECEKLMELYERLEELDADKAEMRASRILHGLGFTPAMQRKKLKDFSGGWRMRVALARALFIRPFMLLLDEPTNHLDLDACVWLEEELKTFKRILVLVSHSQDFLNGVCTNIIHMHNKKLKYYTGNYDQYVKTRLELEENQMKRFHWEQDQIAHMKNYIARFGHGSAKLARQAQSKEKTLQKMMASGLTERVVSDKTLSFYFPPCGKIPPPVIMVQNVSFKYTKDGPCIYNNLEFGIDLDTRVALVGPNGAGKSTLLKLLTGELLPTDGMIRKHSHVKIGRYHQHLQEQLDLDLSPLEYMMKCYPEIKEKEEMRKIIGRYGLTGKQQVSPIRNLSDGQKCRVCLAWLAWQNPHMLFLDEPTNHLDIETIDALADAINEFEGGMMLVSHDFRLIQQVAQEIWVCEKQTITKWPGDILAYKEHLKSKLVDEEPQLTKRTHNV
Consider B1, for which the binding entry with TRAP1-eGFP (human) [2] is “binds”.

B2: Polymerase delta-interacting protein 2 (protein, UniProt Q9Y2S7 52-368)
chain: SSRNRPEGKVLETVGVFEVPKQNGKYETGQLFLHSIFGYRGVVLFPWQARLYDRDVASAAPEKAENPAGHGSKEVKGKTHTYYQVLIDARDCPHISQRSQTEAVTFLANHDDSRALYAIPGLDYVSHEDILPYTSTDQVPIQHELFERFLLYDQTKAPPFVARETLRAWQEKNHPWLELSDVHRETTENIRVTVIPFYMGMREAQNSHVYWWRYCIRLENLDSDVVQLRERHWRIFSLSGTLETVRGRGVVGREPVLSKEQPAFQYSSHVSLQASSGHMWGTFRFERPDGSHFDVRIPPFSLESNKDEKTPPSGLHW
Regarding B2, the binding entry in the assay with SDOS-eGFP (human) and in the assay with TRAP1-eGFP (human) [2] was “binds” throughout.

B3: Monocarboxylate transporter 4 (protein, UniProt O15427 1-465)
chain: MGGAVVDEGPTGVKAPDGGWGWAVLFGCFVITGFSYAFPKAVSVFFKELIQEFGIGYSDTAWISSILLAMLYGTGPLCSVCVNRFGCRPVMLVGGLFASLGMVAASFCRSIIQVYLTTGVITGLGLALNFQPSLIMLNRYFSKRRPMANGLAAAGSPVFLCALSPLGQLLQDRYGWRGGFLILGGLLLNCCVCAALMRPLVVTAQPGSGPPRPSRRLLDLSVFRDRGFVLYAVAASVMVLGLFVPPVFVVSYAKDLGVPDTKAAFLLTILGFIDIFARPAAGFVAGLGKVRPYSVYLFSFSMFFNGLADLAGSTAGDYGGLVVFCIFFGISYGMVGALQFEVLMAIVGTHKFSSAIGLVLLMEAVAVLVGPPSGGKLLDATHVYMYVFILAGAEVLTSSLILLLGNFFCIRKKPKEPQPEVAAAEEEKLHKPPADSGVDLREVEHFLKAEPEKNGEVVHTPETSV
Consider B3, for which the binding result with SDOS-eGFP (human) was “binds”.

B4: Acetyl-CoA acetyltransferase, mitochondrial (enzyme, UniProt P24752 34-427)
chain: VSKPTLKEVVIVSATRTPIGSFLGSLSLLPATKLGSIAIQGAIEKAGIPKEEVKEAYMGNVLQGGEGQAPTRQAVLGAGLPISTPCTTINKVCASGMKAIMMASQSLMCGHQDVMVAGGMESMSNVPYVMNRGSTPYGGVKLEDLIVKDGLTDVYNKIHMGSCAENTAKKLNIARNEQDAYAINSYTRSKAAWEAGKFGNEVIPVTVTVKGQPDVVVKEDEEYKRVDFSKVPKLKTVFQKENGTVTAANASTLNDGAAALVLMTADAAKRLNVTPLARIVAFADAAVEPIDFPIAPVYAASMVLKDVGLKKEDIAMWEVNEAFSLVVLANIKMLEIDPQKVNINGGAVSLGHPIGMSGARIVGHLTHALKQGEYGLASICNGGGGASAMLIQKL
Turning to B4, the binding result with TRAP1-eGFP (human) [2] was “binds”.

B5: Macrophage migration inhibitory factor (protein, UniProt P14174 1-115)
chain: MPMFIVNTNVPRASVPDGFLSELTQQLAQATGKPPQYIAVHVVPDQLMAFGGSSEPCALCSLHSIGKIGGAQNRSYSKLLCGLLAERLRISPDRVYINYYDMNAANVGWNNSTFA
Turning to B5, the binding entry with SDOS-eGFP (human) and in the assay with TRAP1-eGFP (human) [2] was “binds” throughout.

B6: Mitochondrial import receptor subunit TOM40 homolog (protein, UniProt O96008 1-361)
chain: MGNVLAASSPPAGPPPPPAPALVGLPPPPPSPPGFTLPPLGGSLGAGTSTSRSSERTPGAATASASGAAEDGACGCLPNPGTFEECHRKCKELFPIQMEGVKLTVNKGLSNHFQVNHTVALSTIGESNYHFGVTYVGTKQLSPTEAFPVLVGDMDNSGSLNAQVIHQLGPGLRSKMAIQTQQSKFVNWQVDGEYRGSDFTAAVTLGNPDVLVGSGILVAHYLQSITPCLALGGELVYHRRPGEEGTVMSLAGKYTLNNWLATVTLGQAGMHATYYHKASDQLQVGVEFEASTRMQDTSVSFGYQLDLPKANLLFKGSVDSNWIVGATLEKKLPPLPLTLALGAFLNHRKNKFQCGFGLTIG
As to B6, the binding result with SDOS-eGFP (human) and with TRAP1-eGFP (human) [2] was “binds” in each case.

B7: Carbamoyl-phosphate synthase [ammonia], mitochondrial (enzyme, UniProt P31327 39-1500)
chain: LSVKAQTAHIVLEDGTKMKGYSFGHPSSVAGEVVFNTGLGGYPEAITDPAYKGQILTMANPIIGNGGAPDTTALDELGLSKYLESNGIKVSGLLVLDYSKDYNHWLATKSLGQWLQEEKVPAIYGVDTRMLTKIIRDKGTMLGKIEFEGQPVDFVDPNKQNLIAEVSTKDVKVYGKGNPTKVVAVDCGIKNNVIRLLVKRGAEVHLVPWNHDFTKMEYDGILIAGGPGNPALAEPLIQNVRKILESDRKEPLFGISTGNLITGLAAGAKTYKMSMANRGQNQPVLNITNKQAFITAQNHGYALDNTLPAGWKPLFVNVNDQTNEGIMHESKPFFAVQFHPEVTPGPIDTEYLFDSFFSLIKKGKATTITSVLPKPALVASRVEVSKVLILGSGGLSIGQAGEFDYSGSQAVKAMKEENVKTVLMNPNIASVQTNEVGLKQADTVYFLPITPQFVTEVIKAEQPDGLILGMGGQTALNCGVELFKRGVLKEYGVKVLGTSVESIMATEDRQLFSDKLNEINEKIAPSFAVESIEDALKAADTIGYPVMIRSAYALGGLGSGICPNRETLMDLSTKAFAMTNQILVEKSVTGWKEIEYEVVRDADDNCVTVCNMENVDAMGVHTGDSVVVAPAQTLSNAEFQMLRRTSINVVRHLGIVGECNIQFALHPTSMEYCIIEVNARLSRSSALASKATGYPLAFIAAKIALGIPLPEIKNVVSGKTSACFEPSLDYMVTKIPRWDLDRFHGTSSRIGSSMKSVGEVMAIGRTFEESFQKALRMCHPSIEGFTPRLPMNKEWPSNLDLRKELSEPSSTRIYAIAKAIDDNMSLDEIEKLTYIDKWFLYKMRDILNMEKTLKGLNSESMTEETLKRAKEIGFSDKQISKCLGLTEAQTRELRLKKNIHPWVKQIDTLAAEYPSVTNYLYVTYNGQEHDVNFDDHGMMVLGCGPYHIGSSVEFDWCAVSSIRTLRQLGKKTVVVNCNPETVSTDFDECDKLYFEELSLERILDIYHQEACGGCIISVGGQIPNNLAVPLYKNGVKIMGTSPLQIDRAEDRSIFSAVLDELKVAQAPWKAVNTLNEALEFAKSVDYPCLLRPSYVLSGSAMNVVFSEDEMKKFLEEATRVSQEHPVVLTKFVEGAREVEMDAVGKDGRVISHAISEHVEDAGVHSGDATLMLPTQTISQGAIEKVKDATRKIAKAFAISGPFNVQFLVKGNDVLVIECNLRASRSFPFVSKTLGVDFIDVATKVMIGENVDEKHLPTLDHPIIPADYVAIKAPMFSWPRLRDADPILRCEMASTGEVACFGEGIHTAFLKAMLSTGFKIPQKGILIGIQQSFRPRFLGVAEQLHNEGFKLFATEATSDWLNANNVPATPVAWPSQEGQNPSLSSIRKLIRDGSIDLVINLPNNNTKFVHDNYVIRRTAVDSGIPLLTNFQVTKLFAEAVQKSRKVDSKSLFHYRQYSAGKAA
Take B7: the binding result with SDOS-eGFP (human) and in the assay with TRAP1-eGFP (human) [2] was “binds” each time.

B8: Growth hormone-inducible transmembrane protein (protein, UniProt Q9H3K2 46-345)
chain: ATKTRIGIRRGRTGQELKEAALEPSMEKIFKIDQMGRWFVAGGAAVGLGALCYYGLGLSNEIGAIEKAVIWPQYVKDRIHSTYMYLAGSIGLTALSAIAISRTPVLMNFMMRGSWVTIGVTFAAMVGAGMLVRSIPYDQSPGPKHLAWLLHSGVMGAVVAPLTILGGPLLIRAAWYTAGIVGGLSTVAMCAPSEKFLNMGAPLGVGLGLVFVSSLGSMFLPPTTVAGATLYSVAMYGGLVLFSMFLLYDTQKVIKRAEVSPMYGVQKYDPINSMLSIYMDTLNIFMRVATMLATGGNRKK
Regarding B8, the binding entry with TRAP1-eGFP (human) [2] was “binds”.
